Measured values published in publication PMC4747346, “Interaction of RECQ4 and MCM10 is important for efficient DNA replication origin firing in human cells” (Oncotarget, 2015).
Results are given in words; binding and its absence hold for the method and conditions named. For some of these results: In cells and extracts the contact can be indirect. Some entries that bind do so weakly or less than the wild type. Sequences can lack the tags named with a protein.

T1: GST-MCM10 (human) (UniProt Q7L590)
T1 sequence: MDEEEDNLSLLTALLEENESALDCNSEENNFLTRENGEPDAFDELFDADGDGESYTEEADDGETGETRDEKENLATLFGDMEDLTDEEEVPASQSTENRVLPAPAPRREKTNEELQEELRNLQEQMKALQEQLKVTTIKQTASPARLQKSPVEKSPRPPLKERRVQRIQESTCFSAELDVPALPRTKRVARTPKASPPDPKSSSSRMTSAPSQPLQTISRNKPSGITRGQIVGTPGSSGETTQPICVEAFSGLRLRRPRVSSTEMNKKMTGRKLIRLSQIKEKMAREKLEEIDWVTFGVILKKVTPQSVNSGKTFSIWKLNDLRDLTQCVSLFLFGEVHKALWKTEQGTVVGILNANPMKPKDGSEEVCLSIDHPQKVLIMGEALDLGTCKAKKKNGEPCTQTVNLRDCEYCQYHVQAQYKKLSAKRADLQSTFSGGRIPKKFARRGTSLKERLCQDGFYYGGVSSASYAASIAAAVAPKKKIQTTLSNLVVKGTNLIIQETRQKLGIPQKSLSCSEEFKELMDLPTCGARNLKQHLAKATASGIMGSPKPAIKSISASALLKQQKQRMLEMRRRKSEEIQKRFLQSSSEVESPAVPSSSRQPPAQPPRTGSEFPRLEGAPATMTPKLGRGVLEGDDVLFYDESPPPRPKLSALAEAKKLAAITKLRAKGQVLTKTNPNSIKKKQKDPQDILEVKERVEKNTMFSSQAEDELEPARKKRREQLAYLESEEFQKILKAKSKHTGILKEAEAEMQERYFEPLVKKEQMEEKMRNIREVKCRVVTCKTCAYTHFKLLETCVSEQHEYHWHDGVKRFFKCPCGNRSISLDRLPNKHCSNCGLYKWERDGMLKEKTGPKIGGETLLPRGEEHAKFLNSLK

T2: YFP-RECQ4 (wild type) (human) (UniProt O94761)
T2 sequence: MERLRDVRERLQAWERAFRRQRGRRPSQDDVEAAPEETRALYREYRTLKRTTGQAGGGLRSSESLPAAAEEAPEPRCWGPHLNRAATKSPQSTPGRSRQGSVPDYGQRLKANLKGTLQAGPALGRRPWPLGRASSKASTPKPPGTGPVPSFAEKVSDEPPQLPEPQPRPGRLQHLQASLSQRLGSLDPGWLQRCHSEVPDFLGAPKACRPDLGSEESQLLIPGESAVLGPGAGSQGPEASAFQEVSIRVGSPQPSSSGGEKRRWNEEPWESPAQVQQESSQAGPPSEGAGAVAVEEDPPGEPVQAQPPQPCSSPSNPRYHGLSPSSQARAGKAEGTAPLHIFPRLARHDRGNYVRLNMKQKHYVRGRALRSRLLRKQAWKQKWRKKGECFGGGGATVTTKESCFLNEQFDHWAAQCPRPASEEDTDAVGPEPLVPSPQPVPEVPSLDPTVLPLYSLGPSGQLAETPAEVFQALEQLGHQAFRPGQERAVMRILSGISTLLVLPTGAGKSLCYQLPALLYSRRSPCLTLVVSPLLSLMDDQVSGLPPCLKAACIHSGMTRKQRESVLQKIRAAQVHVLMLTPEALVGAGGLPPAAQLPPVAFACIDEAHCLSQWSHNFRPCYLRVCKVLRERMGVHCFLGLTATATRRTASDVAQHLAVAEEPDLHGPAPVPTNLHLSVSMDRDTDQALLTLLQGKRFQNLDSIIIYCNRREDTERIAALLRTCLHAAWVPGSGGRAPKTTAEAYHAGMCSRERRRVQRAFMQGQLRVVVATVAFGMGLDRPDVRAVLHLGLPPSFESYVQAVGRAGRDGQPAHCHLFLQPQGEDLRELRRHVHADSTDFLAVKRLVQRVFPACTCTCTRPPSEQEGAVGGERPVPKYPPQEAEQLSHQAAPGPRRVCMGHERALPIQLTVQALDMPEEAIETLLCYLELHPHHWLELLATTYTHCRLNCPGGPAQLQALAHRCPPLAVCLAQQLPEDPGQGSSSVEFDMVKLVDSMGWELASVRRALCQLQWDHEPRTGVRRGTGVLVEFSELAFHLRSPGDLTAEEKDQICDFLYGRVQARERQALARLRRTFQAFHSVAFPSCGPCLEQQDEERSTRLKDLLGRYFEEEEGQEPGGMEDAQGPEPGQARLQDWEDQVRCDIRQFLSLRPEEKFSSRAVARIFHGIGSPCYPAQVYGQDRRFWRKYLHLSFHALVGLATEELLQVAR


Legend:
GST-MCM10 (human) [1] = biological target: T1, GST-MCM10 (human); test: pull-down; GST or GST-MCM10 on GSH beads (about 1 μg) incubated with purified HIS-RECQ4 (about 1 μg) or purified MBP-RECQ4-HIS fragments in YFP pull-down buffer, 1 h at 4°C; immunoblot for RECQ4; both purified
[2] = biological target: T2, YFP-RECQ4 (wild type) (human); test: co-IP; YFP proteins precipitated with GFP-Trap beads from lysates of transiently transfected U2OS cells (asynchronous, hydroxyurea-arrested, HU-released or nocodazole-arrested); pull-down buffer 10 mM Tris pH 7.5, 200 mM KCl, 10% glycerol, 2 mM MgCl2, 0.5 mM DTT, 0.5% NP-40, benzonase; 2 h at 4°C; immunoblot
GST-MCM10 (human) [3] = biological target: T1, GST-MCM10 (human); test: pull-down; GST or GST-MCM10 on GSH beads incubated with bacterial cell lysates expressing His-tagged RECQ4 domains (FL or ID2); washed with YFP pull-down buffer; immunoblot; only the target purified

Row | binding (GST-MCM10 (human) [3]) | Binder | also measured
1 | – | MBP-RECQ4 1-400-HIS (domain or fragment, UniProt O94761 1-400) MERLRDVRERLQAWERAFRRQRGRRPSQDDVEAAPEETRALYREYRTLKRTTGQAGGGLRSSESLPAAAEEAPEPRCWGPHLNRAATKSPQSTPGRSRQGSVPDYGQRLKANLKGTLQAGPALGRRPWPLGRASSKASTPKPPGTGPVPSFAEKVSDEPPQLPEPQPRPGRLQHLQASLSQRLGSLDPGWLQRCHSEVPDFLGAPKACRPDLGSEESQLLIPGESAVLGPGAGSQGPEASAFQEVSIRVGSPQPSSSGGEKRRWNEEPWESPAQVQQESSQAGPPSEGAGAVAVEEDPPGEPVQAQPPQPCSSPSNPRYHGLSPSSQARAGKAEGTAPLHIFPRLARHDRGNYVRLNMKQKHYVRGRALRSRLLRKQAWKQKWRKKGECFGGGGATVTTK | binding (GST-MCM10 (human) [1]): binds
2 | – | GST-MCM10 (natural protein, human, UniProt Q7L590 1-875, looked up, MCM10, human; construct pGEX-4T-1-MCM10, a gift from Dr. Yilun Liu; also called G-M10; pGEX-4T-1-MCM10; source: E. coli, purified on GSH beads (kept on the beads for pull-downs; eluted with reduced glutathione for the peptide array)) MDEEEDNLSLLTALLEENESALDCNSEENNFLTRENGEPDAFDELFDADGDGESYTEEADDGETGETRDEKENLATLFGDMEDLTDEEEVPASQSTENRVLPAPAPRREKTNEELQEELRNLQEQMKALQEQLKVTTIKQTASPARLQKSPVEKSPRPPLKERRVQRIQESTCFSAELDVPALPRTKRVARTPKASPPDPKSSSSRMTSAPSQPLQTISRNKPSGITRGQIVGTPGSSGETTQPICVEAFSGLRLRRPRVSSTEMNKKMTGRKLIRLSQIKEKMAREKLEEIDWVTFGVILKKVTPQSVNSGKTFSIWKLNDLRDLTQCVSLFLFGEVHKALWKTEQGTVVGILNANPMKPKDGSEEVCLSIDHPQKVLIMGEALDLGTCKAKKKNGEPCTQTVNLRDCEYCQYHVQAQYKKLSAKRADLQSTFSGGRIPKKFARRGTSLKERLCQDGFYYGGVSSASYAASIAAAVAPKKKIQTTLSNLVVKGTNLIIQETRQKLGIPQKSLSCSEEFKELMDLPTCGARNLKQHLAKATASGIMGSPKPAIKSISASALLKQQKQRMLEMRRRKSEEIQKRFLQSSSEVESPAVPSSSRQPPAQPPRTGSEFPRLEGAPATMTPKLGRGVLEGDDVLFYDESPPPRPKLSALAEAKKLAAITKLRAKGQVLTKTNPNSIKKKQKDPQDILEVKERVEKNTMFSSQAEDELEPARKKRREQLAYLESEEFQKILKAKSKHTGILKEAEAEMQERYFEPLVKKEQMEEKMRNIREVKCRVVTCKTCAYTHFKLLETCVSEQHEYHWHDGVKRFFKCPCGNRSISLDRLPNKHCSNCGLYKWERDGMLKEKTGPKIGGETLLPRGEEHAKFLNSLK | binding [2]: binds
3 | binds | His-tagged RECQ4 FL fragment (RECQ4-MCM10 FL, amino acids 76-145) (domain or fragment, UniProt O94761 76-145) RCWGPHLNRAATKSPQSTPGRSRQGSVPDYGQRLKANLKGTLQAGPALGRRPWPLGRASSKASTPKPPGT | –
4 | no binding | YGQRLKANLKGTLQAGPALGRRPWPLGRASSKASTPKPPGT (domain or fragment, UniProt O94761 105-145) [His-tagged RECQ4 ID2 fragment (RECQ4-MCM10 ID2 domain, amino acids 105-145)] | –
